According to PubChem BioAssay AID504834 (National Center for Advancing Translational Sciences (NCATS), 2011):
In all, about 320,000 compounds went through this assay and about 22,000 (6.9%) were called active. Inconclusive means that the source gave no clear call. Such entries were picked first, then a sample of the others. The call rests on the fitted dose curve; in most records, active means well fitted inhibition curve with a large enough effect; inconclusive means small, poorly fitted or top-dose-only effect, or another doubt; inactive means no such curve, though single readings can be large or run the other way. Where the call is inconclusive, the potency comes from a doubtful curve fit.

Assay: Primary qHTS for delayed death inhibitors of the malarial parasite plastid, 96 hour incubation
Settings: P. falciparum luciferase reporter growth; series mostly up to 28.7 µM; activity change, negative = inhibition: at the top concentration
Procedure, shortened: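 Readout is luminescence from an integrated firefly luciferase in P. falciparum. Red cells, 2% hematocrit and 0.05% parasitemia final, were cultured with compound through two parasite generations (96 hours) at 37 C, 5% CO2.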
On the % scale 0 is the no-effect control and ±100 the full control effect; potency means the concentration at half of the fitted maximal effect.

| Structure (SMILES) | Potency | activity change, negative = inhibition |
| --- | --- | --- |
| CN(c1ccccc1)S(=O)(=O)c1cccc(NC(=O)Cc2ccc(Cl)cc2)c1 | inconclusive: 18.5 µM [inhibitor, single point] | – |
| O=C(NC(=S)NCc1nc2ccccc2[nH]1)c1ccc(F)cc1 | – | inactive: 131% |
| COc1cccc(C2=NN(C(=O)c3cccs3)C(O)(C(F)(F)F)C2)c1 (stereo not drawn) | – | inactive: -10.4% |
| CCCc1cc(-n2ccnc2)n2c(nc3ccccc32)c1C#N | inconclusive: 18.5 µM [inhibitor, single point] | – |
| COc1ccnc(Nc2ccc(C)c(C)c2)c1C#N | – | inactive: 8.47% |
| Cc1nc(-c2ccc(F)cc2)c(CC(=O)Nc2cccc(S(=O)(=O)N3CCOCC3)c2)s1 | inconclusive: 11.7 µM [inhibitor, single point] | – |
| CC(=O)Nc1cccc(C(=O)N/N=C/c2ccccc2F)c1 | active: 6.57 µM | – |
| Cc1ccc(-n2cc(CNC(C)c3cnn(C)c3)c(-c3ccc(F)cc3)n2)cc1 (stereo not drawn) | inconclusive: 18.5 µM [inhibitor, single point] | – |
| COc1ccc(CC(=O)Nc2cc(S(=O)(=O)N3CCCCC3)ccc2N2CCN(C)CC2)cc1 | active: 6.57 µM | – |
| CC1CCN(C(=O)CSC2=NS(=O)(=O)c3cc(F)ccc3N2)CC1 | inconclusive: 4.15 µM [inhibitor, single point] | – |
| Cc1ccnc(NS(=O)(=O)c2ccc(NC(=O)c3cc(=O)c4ccccc4o3)cc2)n1 | inconclusive: 18.5 µM [inhibitor, single point] | – |
| CC1(C)Oc2nc3ccccc3n2/C1=C\C#N | inconclusive: 0.415 µM [inhibitor, full curve, poor fit] | – |
| C#CCN(C(=O)c1ccc(OC2CCN(Cc3ccccn3)CC2)cc1)C1CCCCC1 | – | inactive: 19.4% |
| C/C(CC(=O)Nc1ccc(N(C)C)cc1)=N\NC(=O)c1ccc(Cl)cc1 | – | inactive: 20.1% |
| CC1CC(C)CN(CCCNC(=O)C2CCN(c3ncnc4c3sc3cccc(F)c34)CC2)C1 (stereo not drawn) | inconclusive: 0.522 µM [inhibitor, full curve] | – |
| Cc1ccccc1Nc1scc(-c2ccc(Cl)cc2)[n+]1-c1ccccc1C | inconclusive: 14.7 µM [inhibitor, partial curve, poor fit] | – |
| CC(=O)C1C(c2cccc(F)c2)NC(=O)NC1(O)C(F)(F)F (stereo not drawn) | active: 4.65 µM | – |
| CC1CCN(C(=O)c2[nH]cnc2C(=O)NCCCCCNC(=O)OC(C)(C)C)CC1 | inconclusive: 4.15 µM [inhibitor, partial curve, poor fit] | – |
| CN(C(=O)CSc1nnc(-c2cccnc2)o1)C1CCCCC1 | – | inactive: -31.7% |
| Fc1ccc(CN2CCN(c3ncnc4scc(-c5ccccc5)c34)CC2)cc1 | active: 10.4 µM | – |
| CCOc1cc(C#N)c(NC(=O)c2ccco2)cc1OCC | – | inactive: 14.7% |
| CCOC(=O)C1=C(C)Nc2ccccc2N=C1NC(=O)Cc1ccc(Cl)c(Cl)c1 | inconclusive: 9.28 µM [inhibitor, partial curve, poor fit] | – |
| CCC/C=N/Nc1nc2ccccc2s1 | active: 2.62 µM | – |
| CCCCOc1nc2ccccc2nc1C(C#N)C(=O)NC1CCCCC1 (stereo not drawn) | active: 1.47 µM | – |

| Structure (SMILES) | Potency | activity change, negative = inhibition |
| --- | --- | --- |
| Cc1cccc(Nc2nc(N3CCCCC3)nc(N3CCCCC3)n2)c1 | – | inactive: 278% |
| CCOC(=O)N1C=CC=C[C@@H]2[C@@H](N3C(=O)c4ccccc4C3=O)C(=O)N21 | – | inactive: 17% |
| COc1ccc(Br)cc1CNC(=O)C1CCN(S(=O)(=O)N2CCCCC2)CC1 | inconclusive: 11.7 µM [inhibitor, partial curve, poor fit] | – |
| CC1=CC(=C(C#N)C#N)C=C(C)N1Cc1ccccc1 | active: 4.65 µM | – |
| CCN(CC)C(=O)C1CCN(Cc2ccc(OCc3ccccc3)cc2)CC1 | inconclusive: 2.94 µM [inhibitor, single point] | – |
| COc1ccc(N2CCN(CCN3C(=O)c4ccccc4C3=O)CC2)cc1 | – | inactive: 23% |
| O=C(NNC(=O)c1cc2ccccc2cc1O)Nc1ccc(F)cc1F | inconclusive: 10.4 µM [inhibitor, partial curve, poor fit] | – |
| O=C(c1ccccc1)c1ccc(OCCCN2CCCCC2)cc1 | inconclusive: 10.4 µM [inhibitor, single point] | – |
| COCCCNC(=O)CSc1nc2ccccc2c(=O)n1CCCN1CCCCC1 | – | inactive: 16.9% |
| COC(=O)c1ccccc1NC(=O)CN1CCC(NC(=O)c2ccc(C)cc2)CC1 | inconclusive: 3.7 µM [inhibitor, partial curve, poor fit] | – |
| C[N+]1(C)[C@@H]2CC[C@H]1CC(OC(=O)C(CO)c1ccccc1)C2 (stereo partly drawn) | inconclusive: 6.57 µM [inhibitor, partial curve, poor fit] | – |
| OC(CNCc1ccccc1)COc1ccccc1 (stereo not drawn) | – | inactive: 25.1% |
| COc1ccc(N2CCN(C(=S)NCc3ccccc3)CC2)cc1 | inconclusive: 0.522 µM [inhibitor, full curve, poor fit] | – |
| CSCCC(NC(=O)c1ccco1)C(=O)N1CCCC(C(F)(F)F)C1 (stereo not drawn) | inconclusive: 11.7 µM [inhibitor, single point] | – |
| COc1cc2cc(CN(Cc3cccs3)C(=S)Nc3ccccc3)c(=O)[nH]c2cc1OC | – | inactive: -0.85% |
| NS(=O)(=O)c1ccc(CNC(=O)CNC(=O)c2ccc(F)cc2)cc1 | – | inactive: 30.9% |
| CC1CCN(S(=O)(=O)c2cn(CC(=O)Nc3ccc(C#N)cc3)cn2)CC1 | inconclusive: 10.4 µM [inhibitor, single point] | – |
| C=CCc1cc(/C=N/NC(=O)CSc2nnc(CCCc3ccc(OC)cc3)o2)cc(OC)c1O | active: 0.0586 µM | – |
| O=c1nccc(N/N=C/c2cccc(O)c2)[nH]1 | – | inactive: 44.4% |
| O=C(COc1ccccc1)Nc1nc(-c2cccnc2)cs1 | inconclusive: 18.5 µM [inhibitor, single point] | – |
| COc1ccc(C2=CC(=O)C[C@H](c3ccc(OC)c(OC)c3)C2)cn1 | – | inactive: -11.4% |
| Cc1c(C#N)c(NC(=O)c2ccccc2)n(Cc2ccccc2)c1C | inconclusive: 11.7 µM [inhibitor, partial curve, poor fit] | – |
| Cc1ccc(S(=O)(=O)N2CCN(c3ccc([N+](=O)[O-])c(NCCN4CCOCC4)c3)CC2)cc1 | – | inactive: 0% |
| COc1ccc(-c2csc(NC(=O)CS(=O)(=O)c3ccccc3)n2)cc1 | inconclusive: 11.7 µM [inhibitor, single point] | – |

Some of these compounds in order of count of non-hydrogen atoms, smallest number first:

| Structure (SMILES) | Potency | activity change, negative = inhibition |
| --- | --- | --- |
| O=c1nccc(N/N=C/c2cccc(O)c2)[nH]1 | – | inactive: 44.4% |
| OC(CNCc1ccccc1)COc1ccccc1 (stereo not drawn) | – | inactive: 25.1% |
| CC1=CC(=C(C#N)C#N)C=C(C)N1Cc1ccccc1 | active: 4.65 µM | – |
| O=C(COc1ccccc1)Nc1nc(-c2cccnc2)cs1 | inconclusive: 18.5 µM [inhibitor, single point] | – |
| COc1ccc(N2CCN(C(=S)NCc3ccccc3)CC2)cc1 | inconclusive: 0.522 µM [inhibitor, full curve, poor fit] | – |
| Cc1c(C#N)c(NC(=O)c2ccccc2)n(Cc2ccccc2)c1C | inconclusive: 11.7 µM [inhibitor, partial curve, poor fit] | – |
| COc1ccc(-c2csc(NC(=O)CS(=O)(=O)c3ccccc3)n2)cc1 | inconclusive: 11.7 µM [inhibitor, single point] | – |
| CC1CCN(S(=O)(=O)c2cn(CC(=O)Nc3ccc(C#N)cc3)cn2)CC1 | inconclusive: 10.4 µM [inhibitor, single point] | – |
| COc1ccc(Br)cc1CNC(=O)C1CCN(S(=O)(=O)N2CCCCC2)CC1 | inconclusive: 11.7 µM [inhibitor, partial curve, poor fit] | – |
| COCCCNC(=O)CSc1nc2ccccc2c(=O)n1CCCN1CCCCC1 | – | inactive: 16.9% |
| COc1cc2cc(CN(Cc3cccs3)C(=S)Nc3ccccc3)c(=O)[nH]c2cc1OC | – | inactive: -0.85% |
| Cc1ccc(S(=O)(=O)N2CCN(c3ccc([N+](=O)[O-])c(NCCN4CCOCC4)c3)CC2)cc1 | – | inactive: 0% |
| C=CCc1cc(/C=N/NC(=O)CSc2nnc(CCCc3ccc(OC)cc3)o2)cc(OC)c1O | active: 0.0586 µM | – |
